Measurements: paper PMC9896810

By UniProt entry, the sequences of proteins in these tests, tags left out. Where a name states a change or a piece, a line headed by the entry shows the natural chain unless it says otherwise.
UniProt Q13905: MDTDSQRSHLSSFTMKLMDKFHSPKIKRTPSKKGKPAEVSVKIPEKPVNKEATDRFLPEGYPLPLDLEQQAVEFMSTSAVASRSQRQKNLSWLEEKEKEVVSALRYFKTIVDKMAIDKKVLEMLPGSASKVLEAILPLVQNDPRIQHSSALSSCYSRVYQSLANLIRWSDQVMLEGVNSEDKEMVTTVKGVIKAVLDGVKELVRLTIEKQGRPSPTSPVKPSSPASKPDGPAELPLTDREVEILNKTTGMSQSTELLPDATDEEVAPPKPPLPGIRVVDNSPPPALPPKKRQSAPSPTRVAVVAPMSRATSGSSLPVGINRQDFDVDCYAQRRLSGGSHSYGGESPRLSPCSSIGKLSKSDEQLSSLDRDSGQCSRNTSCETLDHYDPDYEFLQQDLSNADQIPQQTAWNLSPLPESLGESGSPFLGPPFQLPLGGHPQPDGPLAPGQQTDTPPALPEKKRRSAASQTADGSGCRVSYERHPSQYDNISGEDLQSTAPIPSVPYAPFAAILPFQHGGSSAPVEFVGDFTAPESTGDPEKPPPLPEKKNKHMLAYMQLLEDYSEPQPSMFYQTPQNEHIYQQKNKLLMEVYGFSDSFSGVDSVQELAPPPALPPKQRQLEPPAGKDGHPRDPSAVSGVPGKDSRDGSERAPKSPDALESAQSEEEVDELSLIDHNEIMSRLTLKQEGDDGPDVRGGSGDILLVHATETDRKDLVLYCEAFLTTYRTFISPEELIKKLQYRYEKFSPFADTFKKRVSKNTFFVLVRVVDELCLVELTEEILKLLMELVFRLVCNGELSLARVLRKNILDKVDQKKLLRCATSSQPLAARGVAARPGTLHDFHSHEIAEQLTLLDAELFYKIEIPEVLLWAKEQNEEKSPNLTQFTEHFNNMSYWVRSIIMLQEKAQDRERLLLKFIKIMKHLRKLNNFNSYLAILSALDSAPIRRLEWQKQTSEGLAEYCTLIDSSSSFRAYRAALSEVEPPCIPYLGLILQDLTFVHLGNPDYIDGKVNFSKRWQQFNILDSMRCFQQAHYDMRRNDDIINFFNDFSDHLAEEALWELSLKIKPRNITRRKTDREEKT
UniProt P46109: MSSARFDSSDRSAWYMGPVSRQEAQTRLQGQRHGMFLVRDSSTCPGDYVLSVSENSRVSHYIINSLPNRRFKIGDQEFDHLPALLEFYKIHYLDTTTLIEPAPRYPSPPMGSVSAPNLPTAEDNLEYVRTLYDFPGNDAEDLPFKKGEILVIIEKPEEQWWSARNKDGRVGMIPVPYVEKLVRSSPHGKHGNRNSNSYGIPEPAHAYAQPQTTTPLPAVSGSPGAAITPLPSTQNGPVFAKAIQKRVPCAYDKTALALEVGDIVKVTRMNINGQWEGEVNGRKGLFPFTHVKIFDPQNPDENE

Assays:
[1] = target: C3G-PPAA-mEGFP (HEK293T, transient) (human) (UniProt Q13905); experiment: co-IP; HEK293T cells transiently expressing C3G-mEGFP, lysed 48 h after transfection; abGFP4 nanobody resin against GFP; endogenous CrkL by western blot
[2] = target: C3G-AAPP-mEGFP (HEK293T, transient) (human) (UniProt Q13905); experiment: as above
[3] = target: C3G-APAA-mEGFP (HEK293T, transient) (human) (UniProt Q13905); experiment: as above
[4] = target: C3G-PAAA-mEGFP (HEK293T, transient) (human) (UniProt Q13905); experiment: as above
[5] = target: C3G-PPAA-mEGFP (Jurkat, stable) (human) (UniProt Q13905); experiment: co-IP; Jurkat cells stably expressing C3G-mEGFP; lysate (0.5% Triton X-100, 150 mM NaCl) on abGFP4 nanobody resin against GFP overnight at 4 °C; endogenous CrkL by western blot
[6] = target: C3G-AAPP-mEGFP (Jurkat, stable) (human) (UniProt Q13905); experiment: as above
[7] = target: C3G-PAAA-mEGFP (Jurkat, stable) (human) (UniProt Q13905); experiment: as above
[8] = target: C3G-APAA-mEGFP (Jurkat, stable) (human) (UniProt Q13905); experiment: as above
[9] = target: C3G-AAAP (human) (UniProt Q13905); experiment: ITC; single-PRM mutants of C3G in the cell titrated with full-length CrkL or CrkL-SH3N; 25 °C; 1:1 model in SEDPHAT; N is the competent fraction of C3G; both purified
[10] = target: C3G-AAAP-Y554H (human) (UniProt Q13905); experiment: as above

binding [1]: binds
binding [2]: binds
binding [3]: binds
binding [4]: binds
Substance: endogenous CrkL (HEK293T cells) (from UniProt P46109 1-303)

binding [5]: binds
binding [6]: binds weakly
binding [7]: binds
binding [8]: binds
Substance: endogenous CrkL (Jurkat cells) (from UniProt P46109 1-303)

binding [9]: binds
binding [10]: binds
Substance: CrkL-SH3N (residues 125-182) (from UniProt P46109 125-182) (domain or fragment)

No constants are given. Whether binding was seen depends on the method and setting. A result given as binding can be weak or reduced; the word gives no strength. For some of these results: In cells and extracts the contact can be indirect. One block for each substance: values may come before it.
